Data set [1] can be described thus: Dyeing performance in General Formulation A on undamaged white goat hair (colour, L, a, b, delta E). The conditions noted are these: for L / a / b: after dyeing; for L / a / b / Delta E: 50° C. 15 min; for Delta E: before vs after colouring; for Color of Dyed Hair: pH 10, 50° C. for 15 min.
The nature of data set [2]: Dyeing performance in General Formulation A on undamaged human blond hair (colour, L, a, b, delta E). The conditions noted are these: undamaged human blonde hair; for L / a / b: after dyeing; for L / a / b / Delta E: 50° C. 15 min; for Delta E: before vs after colouring; for Color of Dyed Hair: pH 10, 50° C. for 15 min.

As for `CS(=O)(=O)c1ccc(/N=N/c2ccc(O)c3ccccc23)c(C#N)c1` [Dye D-25], in data set [1], the L was 38, the a was 8, the b was −5 and the “Delta E” value is given as 51. For the same compound, in data set [1], the “Color of Dyed Hair” value is given as “Ash Blue”. Moreover, in data set [2], the L was found to be 34, the a was determined as 6, the b is given as 9 and the “Delta E” value is 11. Further, the “Color of Dyed Hair” value in data set [2] is on record as “Ash Blue”.
`COCCOc1ccc(/N=N/C2C(=O)N(c3ccccc3)N=C2C#N)cc1S(N)(=O)=O` [Dye D-8]: in data set [1], the L was determined as 84, the a is recorded as −3, the b is on record as 63 and the “Delta E” value was found to be 49. For the same compound, the “Color of Dyed Hair” value in data set [1] is on record as “Bright Yellow”. Moreover, in data set [2], the L stood at 58, the a is given as 6, the b is recorded as 30 and the “Delta E” value is recorded as 18. Besides, the “Color of Dyed Hair” value in data set [2] is given as “Bright Yellow”.
As for `Cc1cc(S(N)(=O)=O)c(C)cc1/N=N/C1C(=O)N(c2ccccc2C)N=C1C#N` [Dye D-10], in data set [1], the L is given as 79, the a came to 3, the b is given as 68 and the “Delta E” value is 54. In addition, the “Color of Dyed Hair” value in data set [1] is “Bright Gold Yellow”. In data set [2], the L is 56, the a was determined as 6, the b is 36 and the “Delta E” value is 22. In addition, the “Color of Dyed Hair” value in data set [2] is recorded as “Bright Gold”.
For the compound `CC(C)C(=O)Nc1cc(/N=N/c2ccc(S(C)(=O)=O)cc2S(C)(=O)=O)ccc1O` [Dye D-5], in data set [1], the L was found to be 48, the a stood at 42, the b is given as −2 and the “Delta E” value worked out at 58. Further, in data set [1], the “Color of Dyed Hair” value is given as “Pink”. In data set [2], the L was 42, the a is recorded as 21, the b was 12 and the “Delta E” value is on record as 17. The “Color of Dyed Hair” value in data set [2] is “Light Pink”.
Consider `COc1ccc(/N=N/C2C(=O)N(c3ccc(S(N)(=O)=O)cc3)N=C2C#N)cc1` [Dye D-15], for which, in data set [1], the L is 76, the a was determined as 13, the b was determined as 62 and the “Delta E” value is given as 50. In addition, the “Color of Dyed Hair” value in data set [1] was “Orange/Gold”. Moreover, in data set [2], the L turned out to be 54, the a came to 9, the b was found to be 36 and the “Delta E” value was 21. Further, the “Color of Dyed Hair” value in data set [2] is listed as “Orange/Gold”.
In the case of `COc1ccc(/N=N/C2C(=O)N(c3ccccc3)N=C2C#N)cc1` [Dye D-7], in data set [1], the L was 76, the a was 14, the b worked out at 74 and the “Delta E” value came to 62. Moreover, in data set [1], the “Color of Dyed Hair” value is “Intense Gold”. Moreover, in data set [2], the L was 53, the a came out at 10, the b is reported as 44 and the “Delta E” value turned out to be 28. Besides, the “Color of Dyed Hair” value in data set [2] is given as “Intense Gold”.

For the origin of these results see patent US7056355B2, “Hair dye composition and dyeing method” (Kao Corporation, priority 2002, dated 2006).
